The supplement of paper PMC10032668
Some of the results follow. Only hits are listed; about a third recur on repeated control peptides.

Protein sequences, listed by entry. Tags and fused reporters are not part of them.
SMARCC1, Q92922, UniProt Q92922, whole entry: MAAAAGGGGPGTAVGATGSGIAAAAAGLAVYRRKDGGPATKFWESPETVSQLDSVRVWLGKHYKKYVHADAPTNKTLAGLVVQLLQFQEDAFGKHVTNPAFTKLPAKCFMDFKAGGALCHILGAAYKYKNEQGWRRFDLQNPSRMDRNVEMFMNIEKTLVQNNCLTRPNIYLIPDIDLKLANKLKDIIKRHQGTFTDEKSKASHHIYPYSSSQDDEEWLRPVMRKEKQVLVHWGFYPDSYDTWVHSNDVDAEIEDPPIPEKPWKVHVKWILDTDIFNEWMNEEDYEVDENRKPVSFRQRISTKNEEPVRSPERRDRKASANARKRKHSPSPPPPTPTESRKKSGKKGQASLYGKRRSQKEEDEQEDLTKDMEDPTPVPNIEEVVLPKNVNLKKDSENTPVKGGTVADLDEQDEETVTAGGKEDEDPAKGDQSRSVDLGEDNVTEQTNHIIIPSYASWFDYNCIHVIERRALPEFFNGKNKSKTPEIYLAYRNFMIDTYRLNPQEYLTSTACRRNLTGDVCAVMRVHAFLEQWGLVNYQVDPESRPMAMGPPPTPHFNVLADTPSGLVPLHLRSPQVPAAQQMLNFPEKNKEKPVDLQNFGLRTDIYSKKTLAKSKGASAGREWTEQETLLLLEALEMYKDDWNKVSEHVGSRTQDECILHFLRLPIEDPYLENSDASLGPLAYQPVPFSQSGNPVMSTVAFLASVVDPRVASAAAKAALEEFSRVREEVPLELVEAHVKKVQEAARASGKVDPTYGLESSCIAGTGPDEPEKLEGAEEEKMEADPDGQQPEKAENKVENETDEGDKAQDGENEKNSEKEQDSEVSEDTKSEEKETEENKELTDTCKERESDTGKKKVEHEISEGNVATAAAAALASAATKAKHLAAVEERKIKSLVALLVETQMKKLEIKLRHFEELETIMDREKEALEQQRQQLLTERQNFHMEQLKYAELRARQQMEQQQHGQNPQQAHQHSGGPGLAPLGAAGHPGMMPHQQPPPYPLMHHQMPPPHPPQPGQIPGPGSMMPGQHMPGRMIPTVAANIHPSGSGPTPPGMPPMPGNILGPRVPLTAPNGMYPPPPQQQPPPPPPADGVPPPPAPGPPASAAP
ERVK-16, P61578, UniProt P61578, whole entry: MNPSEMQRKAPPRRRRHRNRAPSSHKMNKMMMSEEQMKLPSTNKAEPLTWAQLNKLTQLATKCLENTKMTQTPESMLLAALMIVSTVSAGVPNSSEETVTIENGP
AP2A2, O94973, UniProt O94973, whole entry: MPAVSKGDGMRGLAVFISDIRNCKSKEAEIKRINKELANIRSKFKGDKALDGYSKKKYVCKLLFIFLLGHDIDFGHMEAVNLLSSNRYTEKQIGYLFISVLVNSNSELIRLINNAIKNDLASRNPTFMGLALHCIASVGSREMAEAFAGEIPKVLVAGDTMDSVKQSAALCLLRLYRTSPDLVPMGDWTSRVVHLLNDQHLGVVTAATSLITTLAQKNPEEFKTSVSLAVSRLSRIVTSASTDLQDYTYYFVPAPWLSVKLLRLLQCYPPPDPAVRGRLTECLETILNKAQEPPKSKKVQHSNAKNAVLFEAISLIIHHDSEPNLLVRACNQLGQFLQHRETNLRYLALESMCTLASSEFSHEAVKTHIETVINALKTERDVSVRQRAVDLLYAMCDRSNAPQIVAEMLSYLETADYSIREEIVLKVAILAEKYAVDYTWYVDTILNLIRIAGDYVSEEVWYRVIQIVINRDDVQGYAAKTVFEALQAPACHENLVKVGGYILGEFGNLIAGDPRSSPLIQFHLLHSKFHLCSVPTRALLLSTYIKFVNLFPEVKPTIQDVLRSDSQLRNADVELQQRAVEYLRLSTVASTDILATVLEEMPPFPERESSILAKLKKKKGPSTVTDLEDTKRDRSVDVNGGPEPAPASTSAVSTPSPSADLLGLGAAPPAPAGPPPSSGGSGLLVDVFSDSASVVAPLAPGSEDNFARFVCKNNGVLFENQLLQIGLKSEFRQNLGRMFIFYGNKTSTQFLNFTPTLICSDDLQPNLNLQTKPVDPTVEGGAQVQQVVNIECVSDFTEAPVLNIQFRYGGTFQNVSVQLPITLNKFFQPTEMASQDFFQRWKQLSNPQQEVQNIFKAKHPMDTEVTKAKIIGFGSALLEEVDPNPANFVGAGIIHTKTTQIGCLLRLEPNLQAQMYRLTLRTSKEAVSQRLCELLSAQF
TRRAP, Q9Y4A5, UniProt Q9Y4A5, whole entry: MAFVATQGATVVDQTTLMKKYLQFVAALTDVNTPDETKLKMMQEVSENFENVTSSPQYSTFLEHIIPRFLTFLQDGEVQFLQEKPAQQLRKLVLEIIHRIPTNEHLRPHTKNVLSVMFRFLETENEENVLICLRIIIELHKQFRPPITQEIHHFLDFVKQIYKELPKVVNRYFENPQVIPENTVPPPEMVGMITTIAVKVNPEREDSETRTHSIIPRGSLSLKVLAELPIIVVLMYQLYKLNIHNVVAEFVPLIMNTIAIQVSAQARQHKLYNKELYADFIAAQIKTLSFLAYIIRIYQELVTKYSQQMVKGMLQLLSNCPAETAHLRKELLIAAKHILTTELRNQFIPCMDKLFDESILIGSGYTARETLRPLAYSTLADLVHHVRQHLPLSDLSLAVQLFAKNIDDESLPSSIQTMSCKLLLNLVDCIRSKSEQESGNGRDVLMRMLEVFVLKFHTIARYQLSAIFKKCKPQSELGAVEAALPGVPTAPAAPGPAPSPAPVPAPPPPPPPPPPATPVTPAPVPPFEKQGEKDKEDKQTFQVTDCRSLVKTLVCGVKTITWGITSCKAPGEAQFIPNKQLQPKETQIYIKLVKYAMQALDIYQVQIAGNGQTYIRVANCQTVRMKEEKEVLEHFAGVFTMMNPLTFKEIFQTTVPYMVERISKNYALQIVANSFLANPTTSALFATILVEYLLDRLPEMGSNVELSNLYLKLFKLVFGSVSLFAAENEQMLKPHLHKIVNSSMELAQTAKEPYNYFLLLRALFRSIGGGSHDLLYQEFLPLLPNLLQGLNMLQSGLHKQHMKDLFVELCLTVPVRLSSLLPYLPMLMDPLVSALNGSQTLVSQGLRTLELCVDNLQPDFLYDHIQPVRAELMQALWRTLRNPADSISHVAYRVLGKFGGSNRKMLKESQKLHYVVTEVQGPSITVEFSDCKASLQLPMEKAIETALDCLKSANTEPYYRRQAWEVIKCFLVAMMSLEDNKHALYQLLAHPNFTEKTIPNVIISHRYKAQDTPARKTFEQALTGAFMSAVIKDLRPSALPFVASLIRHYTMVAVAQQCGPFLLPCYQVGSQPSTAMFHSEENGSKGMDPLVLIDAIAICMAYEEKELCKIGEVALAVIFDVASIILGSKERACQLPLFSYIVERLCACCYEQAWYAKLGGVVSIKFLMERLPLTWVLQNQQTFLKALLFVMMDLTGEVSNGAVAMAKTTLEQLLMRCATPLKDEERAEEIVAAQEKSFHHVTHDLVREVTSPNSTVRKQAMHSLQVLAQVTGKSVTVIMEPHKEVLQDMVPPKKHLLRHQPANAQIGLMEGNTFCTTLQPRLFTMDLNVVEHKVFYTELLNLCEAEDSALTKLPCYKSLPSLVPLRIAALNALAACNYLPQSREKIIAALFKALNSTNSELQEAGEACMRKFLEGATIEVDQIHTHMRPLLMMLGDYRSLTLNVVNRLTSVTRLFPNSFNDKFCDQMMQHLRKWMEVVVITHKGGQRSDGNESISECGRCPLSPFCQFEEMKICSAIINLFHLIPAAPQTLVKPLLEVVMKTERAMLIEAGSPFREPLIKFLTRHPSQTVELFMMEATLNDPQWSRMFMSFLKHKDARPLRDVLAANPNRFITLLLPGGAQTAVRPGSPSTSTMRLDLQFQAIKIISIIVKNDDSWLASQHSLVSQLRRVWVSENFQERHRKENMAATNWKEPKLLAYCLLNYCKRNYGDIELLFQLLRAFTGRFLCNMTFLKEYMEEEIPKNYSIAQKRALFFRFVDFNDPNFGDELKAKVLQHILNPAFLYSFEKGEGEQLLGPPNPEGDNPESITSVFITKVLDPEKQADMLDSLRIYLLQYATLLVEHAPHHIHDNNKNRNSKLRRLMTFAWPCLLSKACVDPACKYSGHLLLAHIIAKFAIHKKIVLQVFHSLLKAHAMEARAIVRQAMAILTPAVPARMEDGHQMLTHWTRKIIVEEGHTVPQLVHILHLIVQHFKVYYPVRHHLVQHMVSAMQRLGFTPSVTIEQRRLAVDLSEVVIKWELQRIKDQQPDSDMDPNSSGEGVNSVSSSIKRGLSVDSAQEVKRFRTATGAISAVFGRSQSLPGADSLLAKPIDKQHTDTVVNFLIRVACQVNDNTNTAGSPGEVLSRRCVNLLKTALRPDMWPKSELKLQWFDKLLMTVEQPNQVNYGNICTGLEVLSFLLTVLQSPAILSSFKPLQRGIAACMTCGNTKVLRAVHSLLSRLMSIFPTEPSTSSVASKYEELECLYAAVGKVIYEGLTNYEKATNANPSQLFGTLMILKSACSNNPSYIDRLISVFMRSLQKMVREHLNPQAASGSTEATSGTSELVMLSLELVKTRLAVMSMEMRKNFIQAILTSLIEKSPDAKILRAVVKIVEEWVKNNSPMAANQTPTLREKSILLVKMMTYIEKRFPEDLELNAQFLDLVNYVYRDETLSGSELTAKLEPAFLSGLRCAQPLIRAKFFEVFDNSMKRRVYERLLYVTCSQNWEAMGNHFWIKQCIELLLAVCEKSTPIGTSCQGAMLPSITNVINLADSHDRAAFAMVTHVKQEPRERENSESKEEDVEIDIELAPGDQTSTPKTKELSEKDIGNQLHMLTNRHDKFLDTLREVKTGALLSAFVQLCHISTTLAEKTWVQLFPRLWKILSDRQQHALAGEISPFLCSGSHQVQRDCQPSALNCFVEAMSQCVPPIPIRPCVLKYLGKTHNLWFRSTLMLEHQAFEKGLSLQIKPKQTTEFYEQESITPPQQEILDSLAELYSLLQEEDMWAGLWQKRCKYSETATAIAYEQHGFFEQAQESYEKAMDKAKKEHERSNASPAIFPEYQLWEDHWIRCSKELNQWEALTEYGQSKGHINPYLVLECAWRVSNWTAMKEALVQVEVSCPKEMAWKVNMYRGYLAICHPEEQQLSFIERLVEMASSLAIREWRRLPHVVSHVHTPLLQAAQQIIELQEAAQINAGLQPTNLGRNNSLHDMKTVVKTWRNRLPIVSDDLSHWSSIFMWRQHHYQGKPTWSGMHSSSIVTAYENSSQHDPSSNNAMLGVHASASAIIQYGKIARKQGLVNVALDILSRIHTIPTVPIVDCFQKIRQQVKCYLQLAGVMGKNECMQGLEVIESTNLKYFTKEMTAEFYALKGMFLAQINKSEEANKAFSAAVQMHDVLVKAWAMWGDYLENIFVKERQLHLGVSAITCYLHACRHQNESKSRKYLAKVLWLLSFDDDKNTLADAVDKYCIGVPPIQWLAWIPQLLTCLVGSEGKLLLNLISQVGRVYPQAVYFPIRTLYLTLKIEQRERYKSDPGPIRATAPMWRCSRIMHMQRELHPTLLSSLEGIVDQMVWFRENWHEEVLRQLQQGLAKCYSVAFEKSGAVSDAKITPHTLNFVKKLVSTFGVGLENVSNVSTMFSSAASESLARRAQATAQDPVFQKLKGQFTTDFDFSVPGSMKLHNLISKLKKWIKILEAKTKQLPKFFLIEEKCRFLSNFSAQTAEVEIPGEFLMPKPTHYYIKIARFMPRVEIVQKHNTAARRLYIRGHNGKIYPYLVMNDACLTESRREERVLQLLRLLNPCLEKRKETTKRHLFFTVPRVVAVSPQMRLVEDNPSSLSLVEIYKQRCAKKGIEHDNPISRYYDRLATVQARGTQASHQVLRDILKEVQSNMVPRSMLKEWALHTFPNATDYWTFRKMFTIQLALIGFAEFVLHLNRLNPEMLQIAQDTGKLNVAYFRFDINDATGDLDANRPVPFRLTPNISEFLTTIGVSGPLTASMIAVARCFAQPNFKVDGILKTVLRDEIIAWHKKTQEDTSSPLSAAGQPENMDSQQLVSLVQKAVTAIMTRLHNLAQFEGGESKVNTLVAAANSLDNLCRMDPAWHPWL
YY1, P25490, UniProt P25490, whole entry: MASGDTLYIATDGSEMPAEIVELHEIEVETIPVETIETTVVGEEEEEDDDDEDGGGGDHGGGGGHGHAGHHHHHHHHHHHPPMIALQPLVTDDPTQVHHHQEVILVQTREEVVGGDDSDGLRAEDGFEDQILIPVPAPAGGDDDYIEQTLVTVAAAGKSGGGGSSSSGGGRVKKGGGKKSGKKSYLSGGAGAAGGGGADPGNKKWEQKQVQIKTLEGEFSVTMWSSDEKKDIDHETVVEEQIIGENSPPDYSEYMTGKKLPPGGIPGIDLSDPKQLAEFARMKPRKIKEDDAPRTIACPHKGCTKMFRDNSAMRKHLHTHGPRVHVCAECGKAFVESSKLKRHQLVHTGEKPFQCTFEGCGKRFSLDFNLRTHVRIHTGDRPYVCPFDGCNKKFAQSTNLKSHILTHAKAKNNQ

Experiments:
Experiment in all cases: PRISMA enrichment of interactor (LFQ) in peptide spot vs all other peptide spots (log2 fold change); higher = stronger / more specific binding of the interactor to the peptide
ANXA7, P20073 = target: ANXA7, P20073
Description: (§1)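 PRISMA: 15-aa overlapping tiles (offset 8 aa) of 60 microproteins, plus SOS1/GLUT1 control peptides, were spot-synthesized on cellulose membranes in triplicate. Membranes were incubated with benzonase-treated HEK293T lysate, and bound proteins were identified by LC-MS/MS with LFQ. Enrichment is the log2 fold change of each protein in one spot versus all other spots. Only interactors passing the significance cutoff are listed.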

APEX1, P27695 = target: APEX1, P27695
Description: as §1

ARFGAP1, Q8N6T3 = target: ARFGAP1, Q8N6T3
Description: as §1

BANF1, O75531 = target: BANF1, O75531
Description: as §1

BPTF, Q12830 = target: BPTF, Q12830
Description: as §1

CHP1, Q99653 = target: CHP1, Q99653
Description: as §1

CKAP2, Q8WWK9 = target: CKAP2, Q8WWK9
Description: as §1

CTPS1, P17812 = target: CTPS1, P17812
Description: as §1

EARS2, Q5JPH6 = target: EARS2, Q5JPH6
Description: as §1

FOCAD, Q5VW36 = target: FOCAD, Q5VW36
Description: as §1

GRB10, Q13322 = target: GRB10, Q13322
Description: as §1

HOXB9, P17482 = target: HOXB9, P17482
Description: as §1

IGF2BP2, Q9Y6M1 = target: IGF2BP2, Q9Y6M1
Description: as §1

MCMBP, Q9BTE3 = target: MCMBP, Q9BTE3
Description: as §1

P4HB, P07237 = target: P4HB, P07237
Description: as §1

SEC23A, Q15436 = target: SEC23A, Q15436
Description: as §1

SMARCC1, Q92922 = target: SMARCC1, Q92922
Description: as §1

SRRT, Q9BXP5 = target: SRRT, Q9BXP5
Description: as §1

TBCD, Q9BTW9 = target: TBCD, Q9BTW9
Description: as §1

WTAP, Q15007 = target: WTAP, Q15007
Description: as §1

ZC3H11A, O75152 = target: ZC3H11A, O75152
Description: as §1

ZNF724, A8MTY0 = target: ZNF724, A8MTY0
Description: as §1

AP2A1, O95782 = target: AP2A1, O95782
Description: as §1

AP2B1, P63010 = target: AP2B1, P63010
Description: as §1

ASS1, P00966 = target: ASS1, P00966
Description: as §1

ATP6V0D1, P61421 = target: ATP6V0D1, P61421
Description: as §1

C19orf53, Q9UNZ5 = target: C19orf53, Q9UNZ5
Description: as §1

CDC42EP1, Q00587 = target: CDC42EP1, Q00587
Description: as §1

CHTOP, Q9Y3Y2 = target: CHTOP, Q9Y3Y2
Description: as §1

DHX40, Q8IX18 = target: DHX40, Q8IX18
Description: as §1

DIS3, Q9Y2L1 = target: DIS3, Q9Y2L1
Description: as §1

ECHS1, P30084 = target: ECHS1, P30084
Description: as §1

MRPL27, Q9P0M9 = target: MRPL27, Q9P0M9
Description: as §1

MRRF, Q96E11 = target: MRRF, Q96E11
Description: as §1

NECAP2, Q9NVZ3 = target: NECAP2, Q9NVZ3
Description: as §1

NME4, O00746 = target: NME4, O00746
Description: as §1

NUDT16L1, Q9BRJ7 = target: NUDT16L1, Q9BRJ7
Description: as §1

RGPD5, Q99666 = target: RGPD5, Q99666
Description: as §1

RRS1, Q15050 = target: RRS1, Q15050
Description: as §1

SFPQ, P23246 = target: SFPQ, P23246
Description: as §1

SNX27, Q96L92 = target: SNX27, Q96L92
Description: as §1

YTHDC2, Q9H6S0 = target: YTHDC2, Q9H6S0
Description: as §1

ERCC6L2, Q5T890 = target: ERCC6L2, Q5T890
Description: as §1

ERVK-16, P61578 = target: ERVK-16, P61578
Description: as §1

LANCL1, O43813 = target: LANCL1, O43813
Description: as §1

RAB11FIP1, Q6WKZ4 = target: RAB11FIP1, Q6WKZ4
Description: as §1

pk = target: pk
Description: as §1

AP2A2, O94973 = target: AP2A2, O94973
Description: as §1

C19orf47, Q8N9M1 = target: C19orf47, Q8N9M1
Description: as §1

CHAF1B, Q13112 = target: CHAF1B, Q13112
Description: as §1

EP300, Q09472 = target: EP300, Q09472
Description: as §1

FANCI, Q9NVI1 = target: FANCI, Q9NVI1
Description: as §1

GSTP1, P09211 = target: GSTP1, P09211
Description: as §1

ISYNA1, Q9NPH2 = target: ISYNA1, Q9NPH2
Description: as §1

MRPL15, Q9P015 = target: MRPL15, Q9P015
Description: as §1

MRTO4, Q9UKD2 = target: MRTO4, Q9UKD2
Description: as §1

POLR2C, P19387 = target: POLR2C, P19387
Description: as §1

RRP12, Q5JTH9 = target: RRP12, Q5JTH9
Description: as §1

SCFD1, Q8WVM8 = target: SCFD1, Q8WVM8
Description: as §1

SNRPA1, P09661 = target: SNRPA1, P09661
Description: as §1

SPCS2, Q15005 = target: SPCS2, Q15005
Description: as §1

SPTY2D1, Q68D10 = target: SPTY2D1, Q68D10
Description: as §1

SRSF10, O75494 = target: SRSF10, O75494
Description: as §1

TRRAP, Q9Y4A5 = target: TRRAP, Q9Y4A5
Description: as §1

YY1, P25490 = target: YY1, P25490
Description: as §1

AP2S1, P53680 = target: AP2S1, P53680
Description: as §1

DHRS4, Q9BTZ2 = target: DHRS4, Q9BTZ2
Description: as §1

NXF1, Q9UBU9 = target: NXF1, Q9UBU9
Description: as §1

POLDIP2, Q9Y2S7 = target: POLDIP2, Q9Y2S7
Description: as §1

KIF22, Q14807 = target: KIF22, Q14807
Description: as §1

MUC19, Q7Z5P9 = target: MUC19, Q7Z5P9
Description: as §1

B1: DANCR (peptide)
chain: DSVRDRLPQDHSAPA
ANXA7, P20073
  PRISMA enrichment of interactor (log2): 4.02
APEX1, P27695
  PRISMA enrichment of interactor (log2): 3.79
ARFGAP1, Q8N6T3
  PRISMA enrichment of interactor (log2): 7.69
BANF1, O75531
  PRISMA enrichment of interactor (log2): 5.19
BPTF, Q12830
  PRISMA enrichment of interactor (log2): 6.17
CHP1, Q99653
  PRISMA enrichment of interactor (log2): 3.7
CKAP2, Q8WWK9
  PRISMA enrichment of interactor (log2): 13.4
CTPS1, P17812
  PRISMA enrichment of interactor (log2): 4.83
EARS2, Q5JPH6
  PRISMA enrichment of interactor (log2): 3.87
FOCAD, Q5VW36
  PRISMA enrichment of interactor (log2): 4.73
GRB10, Q13322
  PRISMA enrichment of interactor (log2): 5.11
HOXB9, P17482
  PRISMA enrichment of interactor (log2): 5.64
IGF2BP2, Q9Y6M1
  PRISMA enrichment of interactor (log2): 5.05
MCMBP, Q9BTE3
  PRISMA enrichment of interactor (log2): 3.86
P4HB, P07237
  PRISMA enrichment of interactor (log2): 5.28
SEC23A, Q15436
  PRISMA enrichment of interactor (log2): 6.27
SMARCC1, Q92922
  PRISMA enrichment of interactor (log2): 3.83
SRRT, Q9BXP5
  PRISMA enrichment of interactor (log2): 6.63
TBCD, Q9BTW9
  PRISMA enrichment of interactor (log2): 5.65
WTAP, Q15007
  PRISMA enrichment of interactor (log2): 3.51
ZC3H11A, O75152
  PRISMA enrichment of interactor (log2): 9.35
ZNF724, A8MTY0
  PRISMA enrichment of interactor (log2): 6.82

B2: RP11-432J24.5_2 (peptide)
chain: VPVRNSSTGLSSFWE
AP2A1, O95782
  PRISMA enrichment of interactor (log2): 5.07
AP2B1, P63010
  PRISMA enrichment of interactor (log2): 4.97
ASS1, P00966
  PRISMA enrichment of interactor (log2): 4.13
ATP6V0D1, P61421
  PRISMA enrichment of interactor (log2): 7.17
C19orf53, Q9UNZ5
  PRISMA enrichment of interactor (log2): 5.39
CDC42EP1, Q00587
  PRISMA enrichment of interactor (log2): 5.26
CHTOP, Q9Y3Y2
  PRISMA enrichment of interactor (log2): 5.37
DHX40, Q8IX18
  PRISMA enrichment of interactor (log2): 4
DIS3, Q9Y2L1
  PRISMA enrichment of interactor (log2): 5.02
ECHS1, P30084
  PRISMA enrichment of interactor (log2): 5.26
MRPL27, Q9P0M9
  PRISMA enrichment of interactor (log2): 8.3
MRRF, Q96E11
  PRISMA enrichment of interactor (log2): 5.3
NECAP2, Q9NVZ3
  PRISMA enrichment of interactor (log2): 4.05
NME4, O00746
  PRISMA enrichment of interactor (log2): 4.61
NUDT16L1, Q9BRJ7
  PRISMA enrichment of interactor (log2): 4.64
RGPD5, Q99666
  PRISMA enrichment of interactor (log2): 6.92
RRS1, Q15050
  PRISMA enrichment of interactor (log2): 5.01
SFPQ, P23246
  PRISMA enrichment of interactor (log2): 5.18
SNX27, Q96L92
  PRISMA enrichment of interactor (log2): 5.86
YTHDC2, Q9H6S0
  PRISMA enrichment of interactor (log2): 4.98

B3: CRNDE (peptide)
chain: FEISCDVFQSRCKEH
AP2A1, O95782
  PRISMA enrichment of interactor (log2): 5.3
ERCC6L2, Q5T890
  PRISMA enrichment of interactor (log2): 9.34
ERVK-16, P61578
  PRISMA enrichment of interactor (log2): 9.08
LANCL1, O43813
  PRISMA enrichment of interactor (log2): 4.71
RAB11FIP1, Q6WKZ4
  PRISMA enrichment of interactor (log2): 4.98
pk
  PRISMA enrichment of interactor (log2): 4.88

B4: EBAG9 (peptide)
chain: GIQLQQLRAFHVTPG
AP2A2, O94973
  PRISMA enrichment of interactor (log2): 5.82
C19orf47, Q8N9M1
  PRISMA enrichment of interactor (log2): 4.7
CHAF1B, Q13112
  PRISMA enrichment of interactor (log2): 4.11
EP300, Q09472
  PRISMA enrichment of interactor (log2): 5.22
FANCI, Q9NVI1
  PRISMA enrichment of interactor (log2): 6.52
GSTP1, P09211
  PRISMA enrichment of interactor (log2): 8.17
ISYNA1, Q9NPH2
  PRISMA enrichment of interactor (log2): 4.41
MRPL15, Q9P015
  PRISMA enrichment of interactor (log2): 5.46
MRTO4, Q9UKD2
  PRISMA enrichment of interactor (log2): 4.38
POLR2C, P19387
  PRISMA enrichment of interactor (log2): 4.43
RRP12, Q5JTH9
  PRISMA enrichment of interactor (log2): 5.42
SCFD1, Q8WVM8
  PRISMA enrichment of interactor (log2): 6.47
SNRPA1, P09661
  PRISMA enrichment of interactor (log2): 9.66
SPCS2, Q15005
  PRISMA enrichment of interactor (log2): 5.1
SPTY2D1, Q68D10
  PRISMA enrichment of interactor (log2): 5.63
SRRT, Q9BXP5
  PRISMA enrichment of interactor (log2): 8.2
SRSF10, O75494
  PRISMA enrichment of interactor (log2): 8.68
TRRAP, Q9Y4A5
  PRISMA enrichment of interactor (log2): 5.03
YY1, P25490
  PRISMA enrichment of interactor (log2): 4.2

B5: DANCR (peptide)
chain: TFSTFSFNCHNSEVD
AP2A2, O94973
  PRISMA enrichment of interactor (log2): 4.68
AP2S1, P53680
  PRISMA enrichment of interactor (log2): 4.6
DHRS4, Q9BTZ2
  PRISMA enrichment of interactor (log2): 4.68
NXF1, Q9UBU9
  PRISMA enrichment of interactor (log2): 5.15
POLDIP2, Q9Y2S7
  PRISMA enrichment of interactor (log2): 4.65

B6: RP11-620J15.3 (peptide)
chain: DTEQTGHLCNHMEVC
AP2B1, P63010
  PRISMA enrichment of interactor (log2): 5.04
C19orf53, Q9UNZ5
  PRISMA enrichment of interactor (log2): 6.73
KIF22, Q14807
  PRISMA enrichment of interactor (log2): 5.1
MUC19, Q7Z5P9
  PRISMA enrichment of interactor (log2): 8.47
